Results are given in words; binding and its absence hold for the method and conditions named.
Target: Arch domain of human XPD (245-439) (human) (UniProt P18074)
Experiment: crystal structure; human XPD Arch (245-439) / MAT1 (66-141) complex, co-expressed and co-purified; hanging drop, 20 °C, 100 mM Tris-HCl pH 8.5, 25% w/v PEG8000; 2.07 Å, two heterodimers in the asymmetric unit; both purified

B1: Arch domain of human XPD (245-439) (domain or fragment, UniProt P18074 245-439)
chain: DSMSVNLTRRTLDRCQGNLETLQKTVLRIKETDEQRLRDEYRRLVEGLREASAARETDAHLANPVLPDEVLQEAVPGSIRTAEHFLGFLRRLLEYVKWRLRVQHVVQESPPAFLSGLAQRVCIQRKPLRFCAERLRSLLHTLEITDLADFSPLTLLANFATLVSTYAKGFTIIIEPFDDRTPTIANPILHFSCMD
In the case of B1, the binding is reported as “no binding”.
